Experimental data: article doi:10.1101/2022.09.23.509242
No constants are given. Whether binding was seen depends on the method and setting. Some results given as binding are weak or reduced against the parent protein; the word gives no strength.

Protein sequences, listed by entry. Tags and fused reporters are not part of them.
UniProt Q01860: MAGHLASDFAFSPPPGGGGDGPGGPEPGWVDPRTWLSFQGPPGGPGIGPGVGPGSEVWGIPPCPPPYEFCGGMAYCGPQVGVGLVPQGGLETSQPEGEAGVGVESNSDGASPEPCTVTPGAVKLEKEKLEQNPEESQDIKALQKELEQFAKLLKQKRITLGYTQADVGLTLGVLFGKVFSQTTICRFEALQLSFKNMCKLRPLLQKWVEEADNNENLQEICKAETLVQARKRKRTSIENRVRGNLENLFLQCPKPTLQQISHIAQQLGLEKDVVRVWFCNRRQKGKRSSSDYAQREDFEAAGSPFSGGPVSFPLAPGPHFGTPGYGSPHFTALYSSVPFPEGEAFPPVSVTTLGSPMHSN
UniProt P48431: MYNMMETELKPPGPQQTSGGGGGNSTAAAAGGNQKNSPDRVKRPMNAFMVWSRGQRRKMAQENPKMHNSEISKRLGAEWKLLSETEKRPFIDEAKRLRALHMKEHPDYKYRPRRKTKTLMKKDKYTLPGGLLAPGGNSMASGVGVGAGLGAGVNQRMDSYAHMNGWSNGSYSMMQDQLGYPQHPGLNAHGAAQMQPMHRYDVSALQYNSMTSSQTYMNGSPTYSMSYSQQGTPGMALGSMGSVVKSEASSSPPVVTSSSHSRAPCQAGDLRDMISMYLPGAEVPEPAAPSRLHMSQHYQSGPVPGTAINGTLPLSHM

Target: endogenous Oct4 of human iPSCs (human (endogenous in hiPSCs)) (UniProt Q01860)
Test: native gel or EMSA

In the case of “endogenous Sox2 of human iPSCs (from UniProt P48431 1-317)”, the binding is reported as “binds weakly”.
